Experimental data published in publication PMC7409167.

The chains behind the UniProt entries cited, without tags or fusion partners. Where a name states a change or a piece, a line headed by the entry shows the natural chain unless it says otherwise. Residues count along the entry.
UniProt Q92769: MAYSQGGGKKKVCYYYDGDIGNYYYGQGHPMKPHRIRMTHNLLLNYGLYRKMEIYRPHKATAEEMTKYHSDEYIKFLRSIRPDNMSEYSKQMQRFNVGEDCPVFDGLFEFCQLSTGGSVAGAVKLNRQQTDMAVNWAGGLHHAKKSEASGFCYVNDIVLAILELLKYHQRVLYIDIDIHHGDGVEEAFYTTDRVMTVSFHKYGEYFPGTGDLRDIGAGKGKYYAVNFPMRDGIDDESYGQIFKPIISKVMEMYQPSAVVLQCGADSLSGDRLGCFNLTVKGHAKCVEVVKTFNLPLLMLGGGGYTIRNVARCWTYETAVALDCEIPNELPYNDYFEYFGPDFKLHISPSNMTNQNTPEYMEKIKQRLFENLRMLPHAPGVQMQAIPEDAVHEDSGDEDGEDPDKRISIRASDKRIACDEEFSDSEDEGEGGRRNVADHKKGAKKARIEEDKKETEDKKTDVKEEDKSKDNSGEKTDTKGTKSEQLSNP
UniProt P02545, residues 1-646: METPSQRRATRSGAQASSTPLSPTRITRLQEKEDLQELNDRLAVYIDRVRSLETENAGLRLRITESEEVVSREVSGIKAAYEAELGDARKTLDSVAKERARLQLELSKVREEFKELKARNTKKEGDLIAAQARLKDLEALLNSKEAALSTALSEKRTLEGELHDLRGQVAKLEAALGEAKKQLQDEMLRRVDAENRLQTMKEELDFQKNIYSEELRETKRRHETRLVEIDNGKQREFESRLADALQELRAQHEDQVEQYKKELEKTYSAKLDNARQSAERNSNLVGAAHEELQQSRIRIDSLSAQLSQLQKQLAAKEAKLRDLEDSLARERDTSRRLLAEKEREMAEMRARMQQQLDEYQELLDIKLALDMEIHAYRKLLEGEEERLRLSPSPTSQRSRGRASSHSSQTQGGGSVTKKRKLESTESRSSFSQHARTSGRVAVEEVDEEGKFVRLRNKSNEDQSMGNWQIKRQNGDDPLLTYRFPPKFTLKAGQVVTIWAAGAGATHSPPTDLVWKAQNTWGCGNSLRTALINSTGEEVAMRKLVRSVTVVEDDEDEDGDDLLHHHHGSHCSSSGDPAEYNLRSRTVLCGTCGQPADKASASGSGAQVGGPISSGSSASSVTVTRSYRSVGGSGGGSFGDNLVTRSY

Experiments:
Test in all cases: co-IP; HEK293 cells overexpressing GFP-lamin A and FLAG-HDAC2 (wild type or mutant); lysis in 50 mM Tris-HCl pH 8, 150 mM NaCl, 1% NP-40, 0.05% SDS; 700 ug lysate precipitated with anti-FLAG antibody overnight at 4 °C, protein A/G; blot for GFP
FLAG-HDAC2 K75R = FLAG-HDAC2 K75R (UniProt Q92769)
FLAG-HDAC2 K75Q = FLAG-HDAC2 K75Q (UniProt Q92769)
FLAG-HDAC2, wild type = FLAG-HDAC2, wild type (UniProt Q92769)

binding (FLAG-HDAC2 K75R): binds | binding (FLAG-HDAC2 K75Q): binds | binding (FLAG-HDAC2, wild type): binds
Substance: GFP-lamin A (from UniProt P02545 1-646)

Results are given in words; binding and its absence hold for the method and conditions named. Binding seen in cells or lysates may run through a third protein. Binding can be weak; no strength is given.
